From paper PMC6549353
These are yes or no findings as the source states them, for the method shown. Binding seen in cells or lysates may run through a third protein. A yes stands for co-enrichment or nearness to the bait. Other partners may have been found.

Biological target: T1, goat recombinant IL4 (rIL4) (goat) (UniProt P79155)
T1 sequence: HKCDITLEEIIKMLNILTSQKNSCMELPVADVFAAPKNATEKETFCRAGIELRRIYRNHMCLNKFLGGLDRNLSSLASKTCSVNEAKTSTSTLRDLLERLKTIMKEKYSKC
Test: affinity purification with mass spectrometry; immunoprecipitates of rIL4 with HcESPs from the Co-IP; in-solution trypsin digestion, LC/MS-MS (Q Exactive), Mascot 2.2; at least 2 unique peptides; only the target purified

Substance | binding
Calponin actin-binding domain containing protein (HcCab), native in HcESPs (Haemonchus contortus) | binds
Enolase domain containing protein (HcENO) (Haemonchus contortus) | binds
Globin domain containing protein (HcGB) (Haemonchus contortus) | binds
Glutathione S-transferase domain containing protein (HcGST), native in HcESPs (Haemonchus contortus) | binds
Glyceraldehyde-3-phosphate dehydrogenase (HcGAPDH) (Haemonchus contortus) | binds
Phosphoenolpyruvate carboxykinase domain containing protein (HcPEPCK) (Haemonchus contortus) | binds
Transthyretin domain containing protein (HcTTR), native in HcESPs (Haemonchus contortus) | binds
